Measurements: patent publication US6352972
Results are given in words; binding and its absence hold for the method and conditions named. Some binding calls cover weakened binding; strength is not graded here.

Sequences of proteins named here, by UniProt entry; tags and fusion partners are left off. A change or cut given only in a name is not applied to a line headed by its entry. A line that says so, or that is headed by a name, gives the form on record, which may keep a tag or linker.
UniProt P02453: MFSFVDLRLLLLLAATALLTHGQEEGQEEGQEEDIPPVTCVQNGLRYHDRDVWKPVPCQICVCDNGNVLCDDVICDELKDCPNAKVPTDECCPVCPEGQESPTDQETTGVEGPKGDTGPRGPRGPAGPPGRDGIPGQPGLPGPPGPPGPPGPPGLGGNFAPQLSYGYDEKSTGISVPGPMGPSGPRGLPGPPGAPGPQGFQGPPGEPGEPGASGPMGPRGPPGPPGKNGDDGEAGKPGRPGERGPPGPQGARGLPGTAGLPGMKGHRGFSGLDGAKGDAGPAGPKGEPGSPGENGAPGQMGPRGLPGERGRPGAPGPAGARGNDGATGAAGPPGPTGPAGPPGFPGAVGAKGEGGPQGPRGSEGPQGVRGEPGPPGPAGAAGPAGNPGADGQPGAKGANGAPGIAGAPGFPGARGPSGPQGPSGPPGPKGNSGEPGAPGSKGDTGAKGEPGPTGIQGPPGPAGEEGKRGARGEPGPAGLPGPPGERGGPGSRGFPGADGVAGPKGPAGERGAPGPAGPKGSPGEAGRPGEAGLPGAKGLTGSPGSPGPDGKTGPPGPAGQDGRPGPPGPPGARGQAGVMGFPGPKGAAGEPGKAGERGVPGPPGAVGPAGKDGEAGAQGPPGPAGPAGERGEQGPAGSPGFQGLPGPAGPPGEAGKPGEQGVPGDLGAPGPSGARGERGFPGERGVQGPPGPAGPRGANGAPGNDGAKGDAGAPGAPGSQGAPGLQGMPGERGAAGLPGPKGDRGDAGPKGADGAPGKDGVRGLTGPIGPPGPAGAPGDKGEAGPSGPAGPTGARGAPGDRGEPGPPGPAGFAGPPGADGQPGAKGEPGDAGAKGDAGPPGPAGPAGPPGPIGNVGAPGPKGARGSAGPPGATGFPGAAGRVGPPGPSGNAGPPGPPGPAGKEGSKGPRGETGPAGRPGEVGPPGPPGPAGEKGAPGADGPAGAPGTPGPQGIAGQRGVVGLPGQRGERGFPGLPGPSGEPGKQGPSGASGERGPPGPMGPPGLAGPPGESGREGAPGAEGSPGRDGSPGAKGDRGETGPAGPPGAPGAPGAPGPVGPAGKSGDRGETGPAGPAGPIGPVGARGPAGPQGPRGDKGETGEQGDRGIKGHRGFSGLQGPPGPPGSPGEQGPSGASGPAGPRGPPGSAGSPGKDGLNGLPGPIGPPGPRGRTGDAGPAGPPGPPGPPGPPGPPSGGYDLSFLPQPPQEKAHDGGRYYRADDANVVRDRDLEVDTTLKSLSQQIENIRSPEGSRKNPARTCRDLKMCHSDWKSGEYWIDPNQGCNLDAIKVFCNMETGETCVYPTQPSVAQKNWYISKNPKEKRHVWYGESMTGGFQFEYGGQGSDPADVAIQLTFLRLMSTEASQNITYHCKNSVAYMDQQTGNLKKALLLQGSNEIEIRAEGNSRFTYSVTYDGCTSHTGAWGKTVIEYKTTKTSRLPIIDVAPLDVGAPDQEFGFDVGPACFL
UniProt P02465: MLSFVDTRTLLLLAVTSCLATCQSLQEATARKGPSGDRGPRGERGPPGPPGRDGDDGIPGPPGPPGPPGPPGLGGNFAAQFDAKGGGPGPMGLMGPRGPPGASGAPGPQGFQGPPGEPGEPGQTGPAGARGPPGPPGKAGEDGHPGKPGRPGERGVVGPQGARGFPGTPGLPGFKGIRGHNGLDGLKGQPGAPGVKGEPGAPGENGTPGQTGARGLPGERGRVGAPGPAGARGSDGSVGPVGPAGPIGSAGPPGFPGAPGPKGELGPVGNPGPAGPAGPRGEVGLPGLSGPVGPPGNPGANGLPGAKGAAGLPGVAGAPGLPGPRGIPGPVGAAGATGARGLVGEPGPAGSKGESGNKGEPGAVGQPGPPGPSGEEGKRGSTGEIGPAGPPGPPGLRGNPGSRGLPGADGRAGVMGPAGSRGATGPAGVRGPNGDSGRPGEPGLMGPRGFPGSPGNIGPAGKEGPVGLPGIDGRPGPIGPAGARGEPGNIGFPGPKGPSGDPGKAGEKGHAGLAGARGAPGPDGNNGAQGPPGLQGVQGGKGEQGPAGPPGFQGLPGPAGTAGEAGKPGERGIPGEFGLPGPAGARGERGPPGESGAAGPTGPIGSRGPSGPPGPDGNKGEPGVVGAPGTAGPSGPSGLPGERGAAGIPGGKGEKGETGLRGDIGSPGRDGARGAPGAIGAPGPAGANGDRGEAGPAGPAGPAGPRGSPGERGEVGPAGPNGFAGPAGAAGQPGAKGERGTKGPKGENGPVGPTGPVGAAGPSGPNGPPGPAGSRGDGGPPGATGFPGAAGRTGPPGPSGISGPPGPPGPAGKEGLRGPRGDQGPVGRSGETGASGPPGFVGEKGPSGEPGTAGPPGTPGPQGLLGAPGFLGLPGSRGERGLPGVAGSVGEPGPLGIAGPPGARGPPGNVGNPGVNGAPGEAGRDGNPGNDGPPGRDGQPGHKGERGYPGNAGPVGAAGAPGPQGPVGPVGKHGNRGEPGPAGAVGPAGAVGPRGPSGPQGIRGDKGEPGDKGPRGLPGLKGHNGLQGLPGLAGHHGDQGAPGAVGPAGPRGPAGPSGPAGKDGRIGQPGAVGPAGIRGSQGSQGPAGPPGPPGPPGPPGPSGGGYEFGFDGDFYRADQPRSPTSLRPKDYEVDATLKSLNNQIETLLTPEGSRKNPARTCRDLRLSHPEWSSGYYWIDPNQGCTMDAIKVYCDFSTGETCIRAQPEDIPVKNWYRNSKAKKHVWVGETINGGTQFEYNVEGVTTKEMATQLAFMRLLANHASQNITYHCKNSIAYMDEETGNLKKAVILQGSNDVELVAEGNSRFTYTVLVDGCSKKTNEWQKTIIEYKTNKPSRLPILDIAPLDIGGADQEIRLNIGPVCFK
human plasma fibronectin (P02751, form named): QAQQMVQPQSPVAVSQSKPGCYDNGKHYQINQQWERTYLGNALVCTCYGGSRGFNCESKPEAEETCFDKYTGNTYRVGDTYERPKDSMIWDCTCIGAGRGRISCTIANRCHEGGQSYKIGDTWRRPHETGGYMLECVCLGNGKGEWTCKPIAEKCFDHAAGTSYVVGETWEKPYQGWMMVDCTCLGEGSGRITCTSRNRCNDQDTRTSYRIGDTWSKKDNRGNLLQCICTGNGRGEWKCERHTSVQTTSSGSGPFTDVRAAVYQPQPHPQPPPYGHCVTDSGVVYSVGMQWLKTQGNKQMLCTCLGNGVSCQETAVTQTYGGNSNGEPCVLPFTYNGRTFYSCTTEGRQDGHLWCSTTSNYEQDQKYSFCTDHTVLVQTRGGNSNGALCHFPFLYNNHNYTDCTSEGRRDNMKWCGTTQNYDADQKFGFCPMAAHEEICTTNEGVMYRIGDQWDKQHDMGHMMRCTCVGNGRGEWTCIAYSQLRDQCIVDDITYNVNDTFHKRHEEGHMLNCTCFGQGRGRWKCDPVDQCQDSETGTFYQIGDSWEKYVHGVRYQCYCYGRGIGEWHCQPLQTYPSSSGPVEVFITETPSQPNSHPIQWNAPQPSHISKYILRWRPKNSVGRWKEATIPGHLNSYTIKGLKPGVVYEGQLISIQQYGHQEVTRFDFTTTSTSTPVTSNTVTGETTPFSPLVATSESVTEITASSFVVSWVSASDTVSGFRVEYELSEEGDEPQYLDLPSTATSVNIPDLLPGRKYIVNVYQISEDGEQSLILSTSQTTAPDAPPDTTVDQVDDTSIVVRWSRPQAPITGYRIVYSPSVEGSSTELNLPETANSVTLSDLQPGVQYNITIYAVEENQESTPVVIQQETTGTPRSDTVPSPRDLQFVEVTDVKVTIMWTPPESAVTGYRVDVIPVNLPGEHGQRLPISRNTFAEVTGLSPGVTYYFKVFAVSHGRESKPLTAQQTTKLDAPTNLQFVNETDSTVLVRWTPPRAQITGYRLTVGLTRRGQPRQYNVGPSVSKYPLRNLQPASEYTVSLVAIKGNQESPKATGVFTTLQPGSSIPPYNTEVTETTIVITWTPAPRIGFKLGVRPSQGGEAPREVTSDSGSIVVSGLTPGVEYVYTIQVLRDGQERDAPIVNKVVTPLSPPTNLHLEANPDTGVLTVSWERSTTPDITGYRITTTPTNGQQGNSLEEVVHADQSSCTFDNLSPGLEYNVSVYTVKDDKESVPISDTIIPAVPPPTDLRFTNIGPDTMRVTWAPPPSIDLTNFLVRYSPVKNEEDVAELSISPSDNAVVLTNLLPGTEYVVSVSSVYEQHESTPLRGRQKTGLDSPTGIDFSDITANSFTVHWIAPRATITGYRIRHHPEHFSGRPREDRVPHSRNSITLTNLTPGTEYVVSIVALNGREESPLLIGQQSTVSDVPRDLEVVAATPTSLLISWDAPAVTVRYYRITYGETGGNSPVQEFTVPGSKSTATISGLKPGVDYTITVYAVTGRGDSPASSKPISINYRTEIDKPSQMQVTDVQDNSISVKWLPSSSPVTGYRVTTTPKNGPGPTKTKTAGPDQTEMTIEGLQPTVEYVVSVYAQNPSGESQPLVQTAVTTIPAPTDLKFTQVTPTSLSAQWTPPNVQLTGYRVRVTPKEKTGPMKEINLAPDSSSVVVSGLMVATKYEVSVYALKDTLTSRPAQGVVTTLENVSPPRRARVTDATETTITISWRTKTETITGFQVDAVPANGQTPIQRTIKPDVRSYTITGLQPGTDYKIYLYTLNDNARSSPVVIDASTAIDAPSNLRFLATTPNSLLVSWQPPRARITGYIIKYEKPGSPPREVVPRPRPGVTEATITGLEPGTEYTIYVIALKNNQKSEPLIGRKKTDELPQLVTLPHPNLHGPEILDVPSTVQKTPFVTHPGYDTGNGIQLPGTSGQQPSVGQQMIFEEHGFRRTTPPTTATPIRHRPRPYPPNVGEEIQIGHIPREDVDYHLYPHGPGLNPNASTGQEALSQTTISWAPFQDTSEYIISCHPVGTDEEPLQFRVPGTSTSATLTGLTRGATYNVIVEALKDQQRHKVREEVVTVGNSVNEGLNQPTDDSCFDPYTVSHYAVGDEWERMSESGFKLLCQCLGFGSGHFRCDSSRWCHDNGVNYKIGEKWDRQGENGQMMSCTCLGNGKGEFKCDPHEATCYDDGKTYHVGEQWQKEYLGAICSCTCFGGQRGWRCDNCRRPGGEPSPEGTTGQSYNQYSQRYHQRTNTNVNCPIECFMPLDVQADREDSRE
UniProt P01137: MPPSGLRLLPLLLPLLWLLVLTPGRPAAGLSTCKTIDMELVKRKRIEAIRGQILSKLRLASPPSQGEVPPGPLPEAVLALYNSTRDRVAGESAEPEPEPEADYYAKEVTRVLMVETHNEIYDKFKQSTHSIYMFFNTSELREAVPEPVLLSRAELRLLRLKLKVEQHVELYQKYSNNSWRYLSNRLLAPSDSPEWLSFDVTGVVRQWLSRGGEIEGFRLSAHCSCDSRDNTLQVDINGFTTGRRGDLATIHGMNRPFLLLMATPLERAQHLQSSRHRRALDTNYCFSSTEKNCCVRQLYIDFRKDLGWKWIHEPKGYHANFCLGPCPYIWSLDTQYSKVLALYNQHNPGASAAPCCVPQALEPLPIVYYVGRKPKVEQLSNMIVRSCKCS

Experiments:
[1] = target: pepsin-treated, acid-extracted bovine tendon collagen type I (bovine) (UniProt P02453+P02465); assay: adsorbed onto collagen-coated wells, rinsed, Mv1Lu proliferation read-out
[2] = target: human plasma fibronectin (human) (UniProt P02751); assay: adsorbed onto fibronectin-coated wells, rinsed, Mv1Lu proliferation read-out

binding [1]: binds
binding [2]: binds
Substance: TGFβ1-Thrombin fusion protein (from UniProt P01137 279-390)
